Experimental data published in article doi:10.1101/2021.07.08.451585.

Target: ectopically expressed 3xHA-CLUH protein (not stated (human or mouse cDNA cloned))
Assay: co-IP

B1: GFP-KNSTRN (protein, UniProt Q9Y448 1-316)
chain: MAAPEAPPLDRVFRTTWLSTECDSHPLPPSYRKFLFETQAADLAGGTTVAAGNLLNESEKDCGQDRRAPGVQPCRLVTMTSVVKTVYSLQPPSALSGGQPADTQTRATSKSLLPVRSKEVDVSKQLHSGGPENDVTKITKLRRENGQMKATDTATRRNVRKGYKPLSKQKSEEELKDKNQLLEAVNKQLHQKLTETQGELKDLTQKVELLEKFRDNCLAILESKGLDPALGSETLASRQESTTDHMDSMLLLETLQEELKLFNETAKKQMEELQALKVKLEMKEERVRFLEQQTLCNNQVNDLTTALKEMEQLLEM
  binding: binds

No constants are given. Whether binding was seen depends on the method and setting. Binding seen in cells or lysates may run through a third protein. Binding can be weak; no strength is given. Tags and fused reporters may be left off the sequences shown.
